Test results: PubChem BioAssay AID328 (DTP/NCI, 2004)
The list is a part of this screen's results and no random one: it is rich in T/C values a quarter to a half above the control, in often repeated tests (any T/C) and in doses without a T/C. Other doses and runs of a compound stand elsewhere. T/C: endpoint of the treated group in % of that of the vehicle group. Some entries give survivors of the animals treated and no T/C: the source holds a T/C of zero for them, seemingly a mark for toxic or unscored doses. Some survivor counts are full or nearly so, which does not show that the dose was tolerated: the source hardly ever lists a survival T/C far under the control, and the zero likely stands for such cases as well. Survivors were counted at the toxicity check, usually on the fifth day, unless a day is given; later deaths do not show. Schedules are NCI's codes, taken here to give the interval after Q, in days (D) or hours (H), and the number of doses after X. Where survival is the endpoint, this PubChem deposit counts one and a half times the control or more as active, and values a quarter to a half above the control carry no call in these data; other NCI protocols may use other cut-offs. Some T/C values are followed by the survivors on the day toxicity was checked, most often the fifth; without a count, all were alive then. Some entries hold several experiments; the values are given in rising order.

System: BDF1 mice, P388 leukemia ip, median survival T/C
Assay: NCI In Vivo Anticancer Drug Screen. Data for tumor model P388 Leukemia (intraperitoneal) in B6D2F1 (BDF1) mice
Details: T/C endpoint: median survival time, higher T/C = longer survival
Summary of the method: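 Steps: implant the tumour, treat one group with compound and another with vehicle, record survival, then divide treated by control.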

[1] = dose: 400.0 mg/kg/injection, schedule: Q04DX003 (ip), vehicle: saline with Tween-80
[2] = dose: 100.0 mg/kg/injection, schedule: Q01DX009 (ip), vehicle: saline with Tween-80
[3] = dose: 200.0 mg/kg/injection, schedule: Q01DX009 (ip), vehicle: saline with Tween-80
[4] = dose: 400.0 mg/kg/injection, schedule: Q01DX009 (ip), vehicle: saline with Tween-80
[5] = dose: 12.5 mg/kg/injection, schedule: Q01DX009 (ip), vehicle: saline
[6] = dose: 400.0 mg/kg/injection, schedule: Q04DX003 (ip), vehicle: saline
[7] = dose: 100.0 mg/kg/injection, schedule: Q01DX009 (ip), vehicle: saline
[8] = dose: 200.0 mg/kg/injection, schedule: Q01DX009 (ip), vehicle: saline
[9] = dose: 50.0 mg/kg/injection, schedule: Q01DX009 (ip), vehicle: saline with Tween-80
[10] = dose: 200.0 mg/kg/injection, schedule: Q04DX003 (ip), vehicle: saline with Tween-80

## CCOC(=O)c1ccc(NC(=O)Nc2nncs2)cc1
dose: 25.0 mg/kg/injection, schedule: Q01DX009 (ip), vehicle: distilled water + Tween-80
  T/C: 136 % of control
dose: 50.0 mg/kg/injection, schedule: Q01DX009 (ip), vehicle: distilled water + Tween-80
  T/C: 136 % of control
dose: 100.0 mg/kg/injection, schedule: Q01DX009 (ip), vehicle: distilled water + Tween-80
  survivor count: 6 of 6
dose: 200.0 mg/kg/injection, schedule: Q01DX009 (ip), vehicle: distilled water + Tween-80
  survivor count: 6 of 6
dose: 400.0 mg/kg/injection, schedule: Q01DX009 (ip), vehicle: distilled water + Tween-80
  survivor count: 4 of 6

## CC(=O)[C@H]1CC[C@H]2[C@@H]3C[C@H](C)C4=CC(=O)CC[C@]4(C)[C@H]3[C@@H](O)C[C@]12C
[1]
  survivor count: 1 of 6

## COC1C(CO)OC(n2cnc3c(=S)nc(N)[nH]c32)C1O (stereo not given)
dose: 264.0 mg/kg/injection, schedule: Q04DX003 (ip), vehicle: saline with Tween-80
  T/C: 145 % of control
[1]
  T/C: 136 and 147 % of control [5 of 6 alive]

## CCc1ccc(C(=O)C2CC2)cc1
[2]
  T/C: 130 % of control
[3]
  T/C: 135 % of control
[4]
  T/C: 145 % of control [5 of 6 alive]

## C#CC1(OCC(O)CCl)CCCCC1 (stereo not given)
[4]
  survivor count: 2 of 6

## COc1ccc(C(O)c2ccccc2C(=O)Nc2ccccc2)cc1 (stereo not given)
[4]
  survivor count: 6 of 6

## Clc1nc2nsnc2nc1Cl
dose: 100.0 mg/kg/injection, schedule: Q04DX003 (ip), vehicle: saline with Tween-80
  survivor count: 6 of 6
[1]
  survivor count: 4 of 6

## Clc1nc2n[nH]nc2nc1Cl
[5]
  survivor count: 6 of 6

## CCN(c1ccccc1)c1cc2c(cc1[N+](=O)[O-])no[n+]2[O-]
dose: 15.0 mg/kg/injection, schedule: Q01DX009 (ip), vehicle: saline with Tween-80
  T/C: 128 % of control

## NC(Cc1cc(Br)c(O)c(Br)c1)C(=O)O (stereo not given)
[6]
  survivor count: 4 of 6

## C[CH2][Pb]([CH2]C)([CH2]C)[O]C(=O)CBr
dose: 3.0 mg/kg/injection, schedule: Q01DX009 (ip), vehicle: Klucel (hydroxypropylcellulose) (HPC)
  T/C: 136 % of control
dose: 3.0 mg/kg/injection, schedule: Q01DX009 (ip), vehicle: other
  T/C: 129 % of control
dose: 6.0 mg/kg/injection, schedule: Q01DX009 (ip), vehicle: other
  survivor count: 5 of 6

## CCCCCCCCCCCC[N+](C)(C)CCCCCC[N+](C)(C)CCCCCCCCCCCC
dose: 50.0 mg/kg/injection, schedule: Q01DX009 (ip), vehicle: saline
  survivor count: 0 of 6
[7]
  survivor count: 0 of 6
[8]
  survivor count: 0 of 6

## CSc1ccc(NC(=O)CCl)cc1
[2]
  survivor count: 2 of 6

## CC(=O)Nc1ccc(S(=O)(=O)Nc2ccc([N+](=O)[O-])cc2)cc1
dose: 25.0 mg/kg/injection, schedule: Q01DX009 (ip), vehicle: water
  survivor count: 6 of 6
[9]
  T/C: 126 % of control
dose: 100.0 mg/kg/injection, schedule: Q01DX009 (ip), vehicle: water
  survivor count: 5 of 6

## CC1OC(Oc2c(-c3ccc(O)c(O)c3)oc3cc(O)cc(O)c3c2=O)C(O)C(O)C1O (stereo not given)
[1]
  T/C: 127 % of control

## CC(=O)Nc1ccc(Cl)c(Cl)c1
[1]
  survivor count: 1 of 6

## CCNC1=C(N2CC2)C(=O)C(NCC)=C(N2CC2)C1=O
dose: 3.0 mg/kg/injection, schedule: Q01DX009 (ip), vehicle: saline
  survivor count: 6 of 6

## COC(=O)c1ccc(CBr)cc1
[2]
  survivor count: 5 of 6

## C1CNC2NCCNC2N1 (stereo not given)
dose: 88.0 mg/kg/injection, schedule: Q01DX009 (ip), vehicle: saline
  T/C: 140 % of control
[7]
  T/C: 136 % of control
dose: 100.0 mg/kg/injection, schedule: Q04DX003 (ip), vehicle: saline
  T/C: 125 % of control
[8]
  T/C: 136 and 147 % of control
[6]
  T/C: 135 % of control

## ClC1(c2ccccc2)c2ccc(Br)cc2-c2cc(Br)ccc21
dose: 100.0 mg/kg/injection, schedule: Q01DX009 (ip), vehicle: Klucel (hydroxypropylcellulose) (HPC)
  T/C: 125 % of control
dose: 150.0 mg/kg/injection, schedule: Q01DX009 (ip), vehicle: saline with Tween-80
  T/C: 126 % of control [5 of 6 alive]
dose: 400.0 mg/kg/injection, schedule: Q01DX009 (ip), vehicle: Klucel (hydroxypropylcellulose) (HPC)
  survivor count: 5 of 6

## O=c1nc(Oc2ccccc2)nc2cnccn12
[3]
  survivor count: 2 of 6

## COc1cc(Nc2ncnc(N)c2[N+](=O)[O-])cc(OC)c1OC
dose: 200.0 mg/kg/injection, schedule: Q01DX001 (ip), vehicle: saline with Tween-80
  survivor count: 6 of 6

## COc1cc([N+](=O)[O-])ccc1N
[10]
  survivor count: 6 of 6
[1]
  survivor count: 6 of 6

## CC1OC(O[C@@H]2C=C3CC[C@@H]4[C@H](CC[C@]5(C)[C@@H](c6ccc(=O)oc6)CC[C@]45O)[C@@]3(C)CC2)C(O)C(OC2OC(CO)C(O)C(O)C2O)C1O (stereo not given in full)
dose: 3.25 mg/kg/injection, schedule: Q01DX010 (sc), vehicle: steroid suspending solution
  survivor count: 3 of 6
dose: 7.5 mg/kg/injection, schedule: Q01DX010 (sc), vehicle: steroid suspending solution
  survivor count: 2 of 6
dose: 15.0 mg/kg/injection, schedule: Q01DX010 (sc), vehicle: steroid suspending solution
  survivor count: 2 of 6

## O=C1c2cccc3cc([N+](=O)[O-])cc(c23)C(=O)N1CCN1CCCC1
dose: 25.0 mg/kg/injection, schedule: Q01DX009 (ip), vehicle: saline with Tween-80
  T/C: 132 % of control

## CC(=O)O[C@H]1[C@H]2O[C@]23[C@@H]2CC[C@@H]4C[C@@H](O)CC[C@]4(C)[C@H]2CC[C@]3(C)[C@H]1c1ccc(=O)oc1
dose: 15.0 mg/kg/injection, schedule: Q01DX009 (ip), vehicle: Klucel (hydroxypropylcellulose) (HPC)
  survivor count: 6 of 6
dose: 30.0 mg/kg/injection, schedule: Q01DX009 (ip), vehicle: Klucel (hydroxypropylcellulose) (HPC)
  survivor count: 5 of 6
dose: 40.0 mg/kg/injection, schedule: Q01DX010 (ip), vehicle: carboxymethylcellulose (CMC)
  survivor count: 0 of 6

## NNC(=O)NC(=O)NN
dose: 6.25 mg/kg/injection, schedule: Q01DX009 (ip), vehicle: saline
  survivor count: 6 of 6
[5]
  survivor count: 6 of 6
dose: 25.0 mg/kg/injection, schedule: Q01DX009 (ip), vehicle: saline
  survivor count: 6 of 6
[7]
  survivor count: 5 of 6
[8]
  survivor count: 0 of 6
[6]
  survivor count: 4 of 6

## CCSC1(SCC)C(=O)OC2=C(CCCCC2)C1N(C)c1ccccc1 (stereo not given)
[2]
  survivor count: 6 of 6

## CN=C(NC)c1ccc(NC(=O)c2ccc(C(=O)Nc3ccc(C(=NC)NC)cc3)cc2)cc1
[9]
  survivor count: 6 of 6
[2]
  survivor count: 6 of 6
[3]
  survivor count: 2 of 6
[6]
  survivor count: 6 of 6

## CC(=O)CC(C)=O.CC(=O)CC(C)=O.[NH-]C1CCCCC1.[NH-]C1CCCCC1.[Ni+2]
dose: 75.0 mg/kg/injection, schedule: Q04DX003 (ip), vehicle: saline with Tween-80
  T/C: 131 % of control [5 of 6 alive]
dose: 75.0 mg/kg/injection, schedule: Q04DX003 (ip), vehicle: saline
  T/C: 129 % of control

## Cc1cccc2cc3cccc[n+]3cc12
dose: 14.0 mg/kg/injection, schedule: Q01DX009 (ip), vehicle: saline
  survivor count: 0 of 6
dose: 21.0 mg/kg/injection, schedule: Q01DX009 (ip), vehicle: saline
  survivor count: 0 of 6
dose: 27.0 mg/kg/injection, schedule: Q04DX003 (ip), vehicle: saline
  survivor count: 5 of 6

## CCCCCOC(=O)c1ccc(OP(=O)(N(C)C)N(C)C)cc1
[3]
  survivor count: 3 of 6

## S=c1nc[nH]c2c1ncn2C1CCCO1 (stereo not given)
[3]
  survivor count: 6 of 6

## NC(c1ccccc1)C(N)c1ccccc1 (stereo not given)
[9]
  survivor count: 6 of 6
[2]
  survivor count: 6 of 6
[3]
  survivor count: 4 of 6
[10]
  survivor count: 3 of 6
[4]
  survivor count: 0 of 6
[1]
  survivor count: 3 of 6
